Literature values, collected in US20100324036A1, “SUBSTITUTED IMIDAZOPYRIDINE DERIVATIVES AS MELANOCORTIN-4 RECEPTOR ANTAGONISTS” (SANTHERA PHARMACEUTICALS (SCHWEIZ) AG, priority 2007, published 2010).

Details: control compounds of the Caco-2 assay; Zhao et al. 2001; cited from earlier work

Q: For `CC(C)NCC(O)COc1ccc(CC(N)=O)cc1` (stereo not shown) [atenolol], which human absorption is on record?
A: The human absorption was “approximately 50%”.
